Experimental data published in paper PMC3701704.

Molecular target: Zeste fused to the C terminus of GAL4 DNA binding domain (Drosophila)
Test: two-hybrid; yeast strain pJ69-4A, Clontech plasmids; growth on media without tryptophan, leucine, histidine and adenine, and liquid culture beta-galactosidase assay; Mod(mdg4)-67.2 fragments on the GAL4 activating domain, Zeste on the GAL4 DNA binding domain

binding: no binding
B1: Su(Hw) protein (yeast two-hybrid construct) (protein, UniProt P08970 1-941)
chain: MSASKEGKEKKGKLLGVENISPPKDKRPATRMKLLNDVGAGEDSEASTTTTTSRTPSNKQEKRGSVAGSRIKILNEEILGTPKTEKRGATKSTAPAASTVKILNEKKTPSATVTAVETTKIKTSPSKRKKMEHYVLQAVKSENTKADTTVTVVTEEDDTIDFILADDEEVVPGRIENNNGQEIVVTEDDEDLGEDGDEDGEDSSGKGNSSQTKIKEIVEHVCGKCYKTFRRVQSLKKHLEFCRYDSGYHLRKADMLKNLEKIEKDAVVMEKKDICFCCSESYDTFHLGHINCPDCPKSFKTQTSYERHIFITHSEFSDFPCSICNANLRSEALLALHEEQHKSRGKPYACKICGKDFTRSYHLKRHQKYSSCSSNETDTMSCKVCDRVFYRLDNLRSHLKQHLGTQVVKKPEYMCHTCKNCFYSLSTLNIHIRTHTGEKPFDCDLCDKKFSALVALKKHRRYHTGEKPYSCTVCNQAFAVKEVLNRHMKRHTGERPHKCDECGKSFIQATQLRTHSKTHIRPFPCEQCDEKFKTEKQLERHVKTHSRTKRPVFSCAECKRNFRTPALLKEHMDEGKHSPKQQRSSMRSAVKIMERTDCAICDKNFDSSDTLRRHIRTVHECDPDDIFGVEPHPSKRAKKDIESEEVVPVALNTSAGSLISSQTDGNGVVVREFLVDEGDGAAQTITLENETYTILPLDGAIEGEQLTDEAGVKPEAKKEEAQVSPVVKKEQRKSLAASLAAAIADNLEESCSEDDFSGEILTEEDIKLKENVGKLIDMLVDPPILKKYGWPNAPEETVLCKVIENCGHDLTKGGENYAELDYGSRMREYCKLLFTVVIHNDSIKSLLNNFPIDDVIEYVLGDEDQDEGGLDKDNESHSGDEEAVSVTGETKTNEIREKPEKKEVSAKSEKKEIVGKAVDKDNSEEVVRENKKKPVGEQEKA

No constants are given. Whether binding was seen depends on the method and setting.
